Test results published in patent US20250312303A1, “ANTICANCER AGENT” (AGC Inc., priority 2022, published 2025).
Some results were stated once for a whole list of compounds, not compound by compound.

Legend:
HeLa cells = experiment: SRB assay, relative cell proliferation rate of HeLa cells; format: cell-based; conditions: Leu-removed medium + 0.8 mM amino acid, culture time 72 h
From the text: (§1) HeLa cells and PANC-1 cells were used as the cancer cells. Both these cells were obtained from ATCC. Further, NHDF cells obtained from Lonza Group Ltd. were used as control non-cancer cells. The culture mediums used were Dulbecco's Modified Eagle Medium (D-MEM, manufactured by FUJIFILM Wako Pure Chemical Corporation) to which 10% FBS had been added (hereinafter also referred to as the “normal medium”), a medium prepared by removing leucine from D-MEM and adding 10% FBS (hereinafter also referred to as the “Leu-removed medium”), and a medium prepared by removing valine from D-MEM and adding 10% FBS (hereinafter also referred to as the “Val-removed medium”).
(§2) The culture cells were inoculated into a 96-well culture plate at a concentration of 3×10^3 cells/well, and following adhesion, were cultured for 24, 48 or 72 hours in the normal medium, the Leu-removed medium or Val-removed medium, or a medium prepared by adding the fluorine-containing amino acid to the Leu-removed medium or Val-removed medium in an amount sufficient to achieve a final concentration of 0.8 mM. Following culturing, the cell proliferation rate was measured by SRB assay. As a control, the cell proliferation rate was measured in a similar manner for cells having a culture time of 0 hours.
(§3) The SRB assays were conducted in the following manner. […]

PANC-1 cells = experiment: SRB assay, relative cell proliferation rate of PANC-1 cells; format: cell-based; conditions: Leu-removed medium + 0.8 mM amino acid, culture time 72 h
From the text: as §1, §2, §3

[1] = listed as trifluoroleucine, hydrochloride

Row | Compound | Relative cell proliferation rate of HeLa cells (HeLa cells; listed as monofluoroleucine) | Relative cell proliferation rate of PANC-1 cells (PANC-1 cells; listed as monofluoroleucine) | Relative cell proliferation rate of HeLa cells (HeLa cells; [1]) | Relative cell proliferation rate of PANC-1 cells (PANC-1 cells; [1])
1 | CC(C)(F)C[C@H](N)C(=O)O [Leu(1F), 4-fluoro-L-leucine] | less than 100% | less than 100% | – | –
2 | CC(CC(N)C(=O)O)C(F)(F)F.Cl (stereo not shown) [Leu(3F), 2-amino-5,5,5-trifluoro-4-methylpentanoic acid hydrochloride] | – | – | less than 100% | less than 100%
